From PubChem BioAssay AID2284135 (EPA ToxCast)
These results got no clear call from the source, so the numbers are uncertain. Rule for the calls: active = hit-call score of the fitted dose curve at least 0.9, where 1 is the maximum; inconclusive = response in the unintended direction; inactive = score below 0.9. Where the call is inconclusive, the potency comes from a doubtful curve fit.

biological target: cAMP-dependent protein kinase catalytic subunit alpha (Homo sapiens) (UniProt P17612); assay: ERF_TW_ENZ_hPRKACA: Eurofins (ERF) Enzymatic Radiometric [10 uM ATP] LeadHunter Assay for human PKA AGC Kinase
Protocol: ERF_TW_ENZ_hPRKACA is a biochemical, single-readout assay that uses extracted gene-proteins in a cell-free assay. Measurements were taken 0.25 hour after chemical dosing in a 96-well plate. See PKA Human AGC Kinase Enzymatic Radiometric Assay [10 uM ATP], Panlabs.ERF_TW_ENZ_hPRKACA is an assay component calculated from the ERF_TW_ENZ_hPRKACA assay. It is designed to measure enzyme activity using a type of enzyme reporter as detected by scintillation counting with radiometry technology.Data from the assay component ERF_TW_ENZ_hPRKACA was analyzed at the assay endpoint, ERF_TW_ENZ_hPRKACA, in the positive analysis fitting direction relative to DMSO as the negative control and baseline of activity. Using a type of enzyme reporter, loss-of-signal activity can be used to understand changes in enzymatic activity as they relate to gene PRKACA. To generalize the intended target to other relatable targets, this assay endpoint is annotated to the kinase intended target family, where the subfamily is serine/threonine kinase.
Human protein kinase PKA expressed in E. coli. is used. Test compound and/or vehicle is preincubated with 23 ng/ml enzyme in modified MOPS buffer pH 7.2 at 37C for 15 minutes. […] An aliquot is removed to a 96 well multiscreen, washed with H3PO4 solution, dried and counted to determine the amount of 32P- PKA substrate peptide formed. […]

Compound | AC50
CCCCC[C@H](O)CC(=O)CCc1ccc(O)c(OC)c1 | inconclusive: 0.0156 µM
